The results in this text go back to article PMC9525610.

By UniProt entry, the sequences of proteins in these tests, tags left out.
UniProt Q9NRC8: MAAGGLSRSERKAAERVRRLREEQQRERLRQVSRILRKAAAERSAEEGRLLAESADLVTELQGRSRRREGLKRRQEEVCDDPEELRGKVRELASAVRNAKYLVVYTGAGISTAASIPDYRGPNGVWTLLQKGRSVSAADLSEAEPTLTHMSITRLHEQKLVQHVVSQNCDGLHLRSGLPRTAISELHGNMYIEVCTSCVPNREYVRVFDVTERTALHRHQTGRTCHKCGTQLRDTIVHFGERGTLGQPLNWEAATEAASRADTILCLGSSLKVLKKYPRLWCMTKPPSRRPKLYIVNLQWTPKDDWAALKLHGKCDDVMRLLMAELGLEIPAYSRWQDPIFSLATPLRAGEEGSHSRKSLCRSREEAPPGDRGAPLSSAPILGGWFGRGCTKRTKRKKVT

No constants are given. Whether binding was seen depends on the method and setting. Binding seen in cells or lysates may run through a third protein. A yes stands for co-enrichment or nearness to the bait. Other partners may have been found.

This experiment deals with Flag-SIRT7 (UniProt Q9NRC8). Kind of experiment: affinity purification with mass spectrometry; Flag-SIRT7 complex pulled down from HEK293T cells by anti-Flag immunomagnetic beads; SDS-PAGE, Coomassie staining, differential band cut for LC-MS/MS.

B1: O-GlcNAc transferase (OGT), endogenous in HEK293T (enzyme, UniProt O15294 1-1046)
chain: MASSVGNVADSTEPTKRMLSFQGLAELAHREYQAGDFEAAERHCMQLWRQEPDNTGVLLLLSSIHFQCRRLDRSAHFSTLAIKQNPLLAEAYSNLGNVYKERGQLQEAIEHYRHALRLKPDFIDGYINLAAALVAAGDMEGAVQAYVSALQYNPDLYCVRSDLGNLLKALGRLEEAKACYLKAIETQPNFAVAWSNLGCVFNAQGEIWLAIHHFEKAVTLDPNFLDAYINLGNVLKEARIFDRAVAAYLRALSLSPNHAVVHGNLACVYYEQGLIDLAIDTYRRAIELQPHFPDAYCNLANALKEKGSVAEAEDCYNTALRLCPTHADSLNNLANIKREQGNIEEAVRLYRKALEVFPEFAAAHSNLASVLQQQGKLQEALMHYKEAIRISPTFADAYSNMGNTLKEMQDVQGALQCYTRAIQINPAFADAHSNLASIHKDSGNIPEAIASYRTALKLKPDFPDAYCNLAHCLQIVCDWTDYDERMKKLVSIVADQLEKNRLPSVHPHHSMLYPLSHGFRKAIAERHGNLCLDKINVLHKPPYEHPKDLKLSDGRLRVGYVSSDFGNHPTSHLMQSIPGMHNPDKFEVFCYALSPDDGTNFRVKVMAEANHFIDLSQIPCNGKAADRIHQDGIHILVNMNGYTKGARNELFALRPAPIQAMWLGYPGTSGALFMDYIITDQETSPAEVAEQYSEKLAYMPHTFFIGDHANMFPHLKKKAVIDFKSNGHIYDNRIVLNGIDLKAFLDSLPDVKIVKMKCPDGGDNADSSNTALNMPVIPMNTIAEAVIEMINRGQIQITINGFSISNGLATTQINNKAATGEEVPRTIIVTTRSQYGLPEDAIVYCNFNQLYKIDPSTLQMWANILKRVPNSVLWLLRFPAVGEPNIQQYAQNMGLPQNRIIFSPVAPKEEHVRRGQLADVCLDTPLCNGHTTGMDVLWAGTPMVTMPGETLASRVAASQLTCLGCLELIAKNRQEYEDIAVKLGTDLEYLKKVRGKVWKQRISSPLFNTKQYTMELERLYLQMWEHYAAGNKPDHMIKPVEVTESA
As for B1, the binding result is “binds”.
